Structures are written as SMILES. The list shows a part of the results. The main result of the screen is listed elsewhere. These columns were measured beside it and carry no call. Compounds called inactive in the main read-out are mostly missing here. Words in brackets tell the shape of the fitted curve; partial curves, single points and poor fits give uncertain potencies.

The assay is described as follows: qHTS Assay to Find Inhibitors of Chronic Active B-Cell Receptor Signaling. The following applies: ABC-DLBCL IkBa-CBG/CBR reporter, luminescence ratio (green luciferase fused to IkBa over red control in TMD8 lymphoma cells), 4 h. In a few lines:
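Compounds up to 46 uM were incubated four hours with TMD8 cells whose green CBG68 luciferase is fused to IkappaBalpha; red CBR luminescence normalised the signal, and concentration-effect curves were fitted to fusion, red and ratio data.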
For orientation: qHTS replaces the single test concentration by a dilution series.

Setting [1] is: measured here: CBR red luminescence, cell number.

On to `CCC(=O)c1cccc2c1N=CC1=C(CC(C)(C)CC1=O)N2`, for which the AC50 – broadly, the concentration giving half of the maximal activity seen – under setting [1] is 6.51 µM [rising, single point].
Take `Cc1nnc(SCC(N)=O)n1CCc1ccccc1`: the AC50 under setting [1] was 0.00411 µM [rising, full curve, poor fit].
Same read-out and setting: the figure for `Cc1ccccc1Nc1ccc2nonc2c1[N+](=O)[O-]` is 15.8 µM [rising, partial curve, poor fit]; for `Cc1cc(C(=O)Nc2cc(C(C)(C)C)on2)c(C)o1` it is 0.794 µM [falling, full curve, poor fit]; for `CCOc1ccc(N=C/C=C/c2ccccc2)c(O)c1` it is 12.6 µM [rising, single point].
The same measure, in the same setting: the figure for `COC(=O)CCC(NC(=O)c1cc(C)oc1C)C(=O)OC` (stereo not given) is 29.1 µM [rising, single point]; for `CCOC(=O)C1=C(c2ccccc2)N=C2SCC(=O)N2C1c1cccc(OC)c1` (stereo not given) it is 0.92 µM [falling, full curve, poor fit]; for `Oc1c(Cl)cc(Cl)cc1/C=N/Nc1ncc(Br)cn1` it is 0.891 µM [rising, full curve, poor fit].
The same measure, in the same setting: the figure for `C[N+](C)(C)c1ccc(/C=N/Nc2nc(Cl)c(C#N)c(Cl)c2Cl)cc1` is 11.6 µM [falling, partial curve]; for `CCOc1cc(/C=C/c2cc(C(F)(F)F)[nH]c(=O)n2)ccc1O` it is 35.5 µM [falling, single point]; for `Fc1ccc(-c2ccc(CNCc3ccccn3)o2)cc1Cl` it is 6.31 µM [rising, full curve, poor fit].
`Cn1nnnc1SCC(=O)Nc1ccccn1`: the AC50 is, setting by setting: under setting [1], 6.51 µM [falling, single point]; (measured here: IkBa-CBG green luminescence) 6.51 µM [rising, partial curve, poor fit].
For the compound `CCOC(=O)c1snc(-c2ccc(F)cc2)c1N`, under setting [1], the AC50 is 0.562 µM [rising, full curve].
Still for that read-out and setting: the figure for `O=C(CNC(=O)c1cccc(Cl)c1)Nc1ccc(F)c(F)c1F` is 8.91 µM [rising, single point].
On the same count and under the same terms, under `Clc1ccc(OCc2nc(-c3ccccn3)n[nH]2)cc1` stands 9.2 µM [falling, partial curve, poor fit]; under `COc1cccc(C(=O)Nc2ccc(NC(=O)C3C4C=CC(C4)C3C(=O)O)cc2)c1` (stereo not given), 10 µM [falling, partial curve, poor fit].
Still for that read-out and setting: under `CCOC(=O)c1sc(-c2ccccc2)cc1N` stands 2.06 µM [rising, partial curve].
`COc1ccc(CCN(C)C(=O)c2cc(=O)c3ccccc3o2)cc1OC`: under setting [1], the AC50 is 12.6 µM [rising, partial curve, poor fit].
On the same count and under the same terms, under `CCc1noc(C)c1C(=O)N(CC)CC(=O)Nc1cc(Cl)ccc1C` stands 13 µM [rising, partial curve, poor fit].

For the origin of these results see PubChem BioAssay AID493014 (National Center for Advancing Translational Sciences (NCATS), 2011).
